Earlier results in US12115137B2, “Synergistic combinations of atorvastatin and cannabidiol (CBD)” (Indication BioScience LLC, priority 2016, dated 2024).
Some results were stated once for a whole list of compounds, not compound by compound.

Details: with potent CYP3A4 inhibitors such as itraconazole

CC[C@H](C)C(=O)O[C@H]1C[C@@H](C)C=C2C=C[C@H](C)[C@H](CC[C@@H]3C[C@@H](O)CC(=O)O3)[C@H]21 [lovastatin]
increase in statin serum concentration: 10- to 20 fold
